The chains behind the UniProt entries cited, without tags or fusion partners.
UniProt O95931, whole entry: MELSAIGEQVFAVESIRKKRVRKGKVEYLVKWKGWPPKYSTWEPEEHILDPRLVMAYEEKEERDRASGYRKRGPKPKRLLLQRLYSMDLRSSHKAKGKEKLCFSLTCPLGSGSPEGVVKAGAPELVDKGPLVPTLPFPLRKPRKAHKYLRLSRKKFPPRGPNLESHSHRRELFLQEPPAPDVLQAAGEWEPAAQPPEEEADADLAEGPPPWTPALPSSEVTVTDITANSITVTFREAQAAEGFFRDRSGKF

The other results are listed elsewhere or left out.
Each compound was assayed against Chromobox protein homolog 7 (Homo sapiens) (UniProt O95931) (assay: blockers of CBX7 binding to H3K27me3 peptide – biochemical, AlphaScreen, primary screen (AID 1224903)). Conditions: AlphaScreen His6-CBX7 / biotin-H3K27me3 peptide binding; measured here: z-score of CBX7 signal; stronger effect = lower value.
Compound C1CN(c2nonc2-[n+]2nc3nonc3[n-]2)CCO1 has a z-score of -2.42. O=C(OCCN1CCN(CCOCc2ccccc2)CC1)C(O)(c1ccccc1)c1ccccc1 showed a z-score of 0.902. C=CCN1CCN(CCOC(=O)C(O)(c2ccccc2)c2ccccc2)CC1 showed a z-score of 0.88.
